In PubChem BioAssay AID1508600 (Functional Genomics Laboratory (NCATS/FGL), 2020) one finds z-score data, which are given here for 29 sequences.

The campaign covered roughly 53,000 sequences. About 3,700 (7%) were called active.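 How the source made its calls: active means gene knockdowns whose robust z-score for IL-1 alpha signal is at least 2 or at most -2, so actives lie on both sides; inactive means the rest.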 The list shows a part of the results.

The nature of the assay: Components of the Cytosolic LPS Sensing Pathway: Gene Identification via Genome-wide siRNA Screen.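 Further: robust z of the log signal after scaling to non-targeting control siRNA wells of the plate.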 The conditions noted are these: RAW264.7 macrophages, IL-1a HTRF, actives lie on both sides, screened at 100 nM (by protocol), cells primed 5 h with Pam3CSK4 first. Summed up:
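Using IL-1a HTRF as read-out, the screen measured release from RAW264.7 cells after 48h siRNA knockdown (100 nM), 5 h Pam3CSK4 priming and 24 h cytosolic LipidA. Values were expressed relative to negative-control wells as robust z-scores.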
A general note: Time-resolved FRET reads energy transfer from a long-lived donor to a nearby acceptor.
As for GAAAGGAAAGCUAGCCAUGTT against Gm5622, the z-score was inactive: 0.614.

Turning to CCCUAGAAUUCCAAAGAAATT against Sox7, the z-score was inactive: 0.0464. Take GCAGAUCUAUCCUAGCCGGTT against Eif1: the z-score is inactive: -0.4.

GGCCCUCAAUACCUGUGGUTT against Olfr690: the z-score was active: -3.13. The value for GGAUCUCACAGUGAAGAAGTT against Krba1 was inactive: 0.392. For GGUGAAGAUGCAGACCUUUTT against Slc25a15, the z-score was inactive: -0.479. As for “GGAGGUGGAAUACUGCAUCTT against 4931406B18Rik”, the z-score was inactive: 0.644.

In the case of CCUCUCCUAUUCCUAGUGUTT against Olfr183, the z-score is inactive: -0.996. With GGACAAAAGCAGCUUGAGUTT against Coa6, the z-score was inactive: 0.963. The figure for AUGCACCAUGCCGUUGACUTT against Oxct2b is inactive: 0.422; for GCAGUACCACUCUCUUUUUTT against Sap130 it is inactive: 1.02. On to GGAAAUCAUGAAGCUGAAATT against Clpp, for which the z-score was inactive: -0.0221. The figure for GGACAUUGUUAAAGGCAUATT against Kpna2 is inactive: 0.292; for GGAUUCCUUACCAAAGAAGTT against Ccdc7b it is inactive: -0.918; for GCACUUUGACCUGAAUCUATT against Wdr46 it is inactive: 0.824. The value for GGACAACCCAGUCUCAAAATT against Mrpl43 was inactive: 1.44. The value for CCACAAAACCACACCAGUGTT against Olfr24 was inactive: -0.39.

With GGAUAUUUUUGGCAGCCCUTT against Slco1b2, the z-score was inactive: -1.67. The value for CCUCAGUGCUUACUUUGAATT against Dusp3 was inactive: -0.109. The figure for GGGAAGGUAAGGCAUAAGCTT against Mkx is inactive: -0.561; for GGAAAUUUGCCAACAUACUTT against Acsm3 it is inactive: 1.42. The figure for GCCACUCUUAGUGCUAACUTT against Tctn3 is inactive: -1.25.

Consider GGUGAUCAAUCCUCUAAUATT against Eid2, for which the z-score is active: 2.61. The value for GGCAAAGAGUGGUAAGAGUTT against Olfr1166 was active: -2.72; that for GGAAGCCUUCACAAUCAUGTT against Myl2 was inactive: -0.41; that for GCUACCUGCUCUAUACAUGTT against Crlf1 was inactive: 1.03. Turning to GCCCAGUCUUGAUUAUCUATT against Atp6v0e2, the z-score was inactive: -0.748. Regarding GGACCACAGAUGAAUUGGATT against Relb, the z-score is inactive: -0.537.

Turning to GGACAAUUACAACACUCAATT against Ablim3, the z-score is inactive: -0.00526.
